PubChem BioAssay AID1259425 | University of Nebraska Medical Center – 2018
Test: 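Find knockdowns that reproduce the gene expression pattern seen when KSR1 is lost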 (primary screen). Cell system: HCT116 human colon cancer cells. Knock-down reagent: siRNA pool against human genes, 50 nM siRNA. Detection: 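After 50 nM siRNA pool, branched-DNA assay measures six marker transcripts per well, minus blank, normalised to the geometric mean of two housekeeping transcripts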. Direction: BNIP3L mRNA: higher = more BNIP3L transcript after knockdown; NDRG1 mRNA: higher = more NDRG1 transcript after knockdown; BNIP3 mRNA: higher = more BNIP3 transcript after knockdown; ALDOC mRNA: higher = more ALDOC transcript after knockdown; ACSL5 mRNA: higher = more ACSL5 transcript after knockdown.
The whole screen tested about 14,000 reagents; below is a part drawn at random. Not stated in the record: the time to read-out.

gene	PubChem SID	BNIP3L mRNA, set 1	NDRG1 mRNA, set 1	BNIP3 mRNA, set 1	ALDOC mRNA, set 1	ACSL5 mRNA, set 1
MT-ND4	SID364004844	0.0347	0.412	0.44	0.00755	0.142
CD48	SID363992997	0.0545	0.0674	0.195	0.0177	0.143
TAPBPL	SID364000704	0.0755	0.153	0.358	0.0478	0.183
AKT3	SID363996368	0.104	0.376	0.276	0.00444	0.262
SERPINF1	SID363993783	0.148	0.392	0.378	0.044	0.274
CDH12	SID363995071	0.062	0.144	0.276	0.0143	0.186
SON	SID363994245	0.19	0.905	0.137	0.0556	0.365
KIF15	SID364001587	0.0712	0.0959	0.262	0.0174	0.119
EPHB4	SID363995426	0.0934	0.0896	0.327	0.0104	0.168
KDM4C	SID363999278	0.118	0.202	0.368	0.0147	0.115
TNK1	SID363995038	0.112	0.275	0.365	0.0127	0.222
RB1	SID363991653	0.071	0.127	0.138	0.0323	0.109
NEIL3	SID364000912	0.083	0.116	0.279	0.02	0.12
RNF213	SID364001911	1.08	5.16	3.12	1.12	0.0912
RNF213	SID364005347	0.0886	0.446	0.441	0.0177	0.307
CEACAM1	SID363992933	0.136	0.184	0.262	0.0287	0.349
ELL2	SID363998031	0.151	0.125	0.334	0.0402	0.13
TSBP1	SID363997550	0.169	0.921	0.317	0.0521	0.281
LARP1	SID363999409	0.278	0.53	0.416	0.0811	0.358
OR2S2	SID364001473	0.117	0.169	0.359	0.0699	0.192
NINJ2	SID364000177	0.101	0.282	0.262	0.0843	0.37
NELFA	SID363996555	0.107	0.19	0.39	0.0154	0.132
IRGC	SID364001439	0.153	0.198	0.338	0.0484	0.229
AMBRA1	SID364005404	0.0718	0.191	0.287	0.0108	0.106
GLIPR1	SID363997615	0.131	0.0621	0.211	0.00674	0.0945
MZF1	SID363994526	0.107	0.153	0.276	0.0153	0.219
LSG1	SID364001028	0.116	0.141	0.306	0.0113	0.199
SLC35G2	SID364003345	0.119	0.185	0.299	0.0348	0.22
P2RY14	SID363999166	0.275	0.183	0.435	0.0425	0.157
TIMP4	SID363994377	0.0896	0.0898	0.28	0.0237	0.164
ELOVL4	SID364002505	0.219	0.39	0.482	0.0345	0.24
SNX2	SID363994242	0.18	0.13	0.309	0.0331	0.277
RAB23	SID364000002	0.149	0.221	0.407	0.0444	0.141
HAVCR2	SID364004167	0.0997	0.414	0.201	0.0303	0.238
